Experimental findings from the supplement of paper PMC12819154, “High-throughput peptide-centric local stability assay extends protein–ligand identification to membrane proteins, tissues and bacteria” (Nature Structural & Molecular Biology, 2025) are described below.

Sequences of proteins named here, by UniProt entry; tags and fusion partners are left off. A change or cut given only in a name is not applied to a line headed by its entry.
UniProt P35917, whole entry: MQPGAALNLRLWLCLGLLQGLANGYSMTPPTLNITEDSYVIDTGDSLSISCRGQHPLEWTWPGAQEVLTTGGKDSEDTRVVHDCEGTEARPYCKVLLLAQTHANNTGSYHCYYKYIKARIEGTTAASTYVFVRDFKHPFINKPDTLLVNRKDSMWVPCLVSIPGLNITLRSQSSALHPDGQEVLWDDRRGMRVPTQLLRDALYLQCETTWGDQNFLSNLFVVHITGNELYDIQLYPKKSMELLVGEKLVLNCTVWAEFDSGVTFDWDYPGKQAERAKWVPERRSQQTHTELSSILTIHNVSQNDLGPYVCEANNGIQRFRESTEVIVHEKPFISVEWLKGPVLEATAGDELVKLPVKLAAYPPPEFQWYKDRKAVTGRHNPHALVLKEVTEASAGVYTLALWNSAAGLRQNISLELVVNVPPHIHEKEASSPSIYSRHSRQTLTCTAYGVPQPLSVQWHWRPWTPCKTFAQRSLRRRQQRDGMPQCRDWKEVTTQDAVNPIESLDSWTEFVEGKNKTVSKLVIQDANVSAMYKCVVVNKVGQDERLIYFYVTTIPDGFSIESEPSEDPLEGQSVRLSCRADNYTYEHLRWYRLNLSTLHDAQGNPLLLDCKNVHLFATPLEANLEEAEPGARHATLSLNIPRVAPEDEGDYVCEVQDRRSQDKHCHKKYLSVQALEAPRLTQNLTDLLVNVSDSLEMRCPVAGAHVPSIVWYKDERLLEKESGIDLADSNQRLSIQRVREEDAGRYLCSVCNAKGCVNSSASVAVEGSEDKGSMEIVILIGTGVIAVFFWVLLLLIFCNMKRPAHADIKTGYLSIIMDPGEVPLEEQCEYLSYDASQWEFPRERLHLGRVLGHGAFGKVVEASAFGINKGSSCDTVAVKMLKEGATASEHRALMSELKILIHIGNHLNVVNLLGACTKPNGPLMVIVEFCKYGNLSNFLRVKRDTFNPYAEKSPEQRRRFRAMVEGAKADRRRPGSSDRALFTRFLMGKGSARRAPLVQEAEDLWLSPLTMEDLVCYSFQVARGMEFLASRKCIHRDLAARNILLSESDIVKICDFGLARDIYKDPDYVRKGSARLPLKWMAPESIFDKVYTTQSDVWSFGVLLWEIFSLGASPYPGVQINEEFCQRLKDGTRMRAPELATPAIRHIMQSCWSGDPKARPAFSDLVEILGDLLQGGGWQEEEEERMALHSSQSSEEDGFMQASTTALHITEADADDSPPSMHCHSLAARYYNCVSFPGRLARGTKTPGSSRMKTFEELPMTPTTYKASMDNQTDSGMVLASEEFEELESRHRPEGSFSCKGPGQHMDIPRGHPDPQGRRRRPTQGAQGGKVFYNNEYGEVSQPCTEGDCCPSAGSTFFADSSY
UniProt P47199: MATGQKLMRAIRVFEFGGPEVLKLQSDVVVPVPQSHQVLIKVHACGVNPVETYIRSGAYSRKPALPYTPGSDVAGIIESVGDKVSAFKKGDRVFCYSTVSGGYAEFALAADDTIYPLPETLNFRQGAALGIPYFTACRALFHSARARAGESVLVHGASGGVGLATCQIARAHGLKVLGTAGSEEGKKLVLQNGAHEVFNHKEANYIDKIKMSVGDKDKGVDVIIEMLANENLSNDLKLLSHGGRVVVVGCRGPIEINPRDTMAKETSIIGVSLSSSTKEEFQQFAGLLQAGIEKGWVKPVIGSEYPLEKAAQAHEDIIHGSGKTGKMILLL
UniProt P51859: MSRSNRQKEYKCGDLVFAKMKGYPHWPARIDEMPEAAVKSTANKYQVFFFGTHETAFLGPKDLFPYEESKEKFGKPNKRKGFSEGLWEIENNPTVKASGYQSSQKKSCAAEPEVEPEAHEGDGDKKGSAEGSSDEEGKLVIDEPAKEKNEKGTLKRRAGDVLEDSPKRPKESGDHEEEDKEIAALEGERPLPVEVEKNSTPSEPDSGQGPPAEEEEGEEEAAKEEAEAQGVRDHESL
UniProt P45591, whole entry: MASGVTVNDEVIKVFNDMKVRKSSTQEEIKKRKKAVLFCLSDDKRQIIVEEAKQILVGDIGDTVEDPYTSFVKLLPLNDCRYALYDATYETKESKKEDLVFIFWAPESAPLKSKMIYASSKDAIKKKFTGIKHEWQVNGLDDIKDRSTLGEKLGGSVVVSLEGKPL
UniProt P53996: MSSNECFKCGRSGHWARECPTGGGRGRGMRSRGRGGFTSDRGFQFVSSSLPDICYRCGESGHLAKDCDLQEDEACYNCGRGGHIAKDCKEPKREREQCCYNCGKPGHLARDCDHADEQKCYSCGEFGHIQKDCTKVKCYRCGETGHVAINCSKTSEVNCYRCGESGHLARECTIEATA
UniProt P56380: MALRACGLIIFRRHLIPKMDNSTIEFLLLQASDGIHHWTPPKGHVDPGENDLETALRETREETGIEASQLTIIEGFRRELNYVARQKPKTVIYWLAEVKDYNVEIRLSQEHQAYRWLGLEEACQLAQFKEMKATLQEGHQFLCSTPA
UniProt P50446: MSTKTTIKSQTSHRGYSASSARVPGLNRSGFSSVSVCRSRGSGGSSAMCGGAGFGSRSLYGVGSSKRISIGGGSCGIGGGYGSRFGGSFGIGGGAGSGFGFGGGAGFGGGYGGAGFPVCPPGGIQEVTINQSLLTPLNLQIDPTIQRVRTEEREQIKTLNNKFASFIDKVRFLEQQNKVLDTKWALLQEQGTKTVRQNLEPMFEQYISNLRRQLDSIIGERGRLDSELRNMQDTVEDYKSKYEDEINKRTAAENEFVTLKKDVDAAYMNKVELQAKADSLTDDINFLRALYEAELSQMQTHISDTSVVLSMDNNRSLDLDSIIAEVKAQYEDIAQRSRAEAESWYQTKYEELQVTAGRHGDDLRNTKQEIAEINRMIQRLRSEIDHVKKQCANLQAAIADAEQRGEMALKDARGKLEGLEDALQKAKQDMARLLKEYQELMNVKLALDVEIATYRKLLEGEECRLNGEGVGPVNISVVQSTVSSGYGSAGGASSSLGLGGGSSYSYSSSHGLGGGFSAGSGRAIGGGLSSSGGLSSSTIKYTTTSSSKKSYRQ
UniProt P42932: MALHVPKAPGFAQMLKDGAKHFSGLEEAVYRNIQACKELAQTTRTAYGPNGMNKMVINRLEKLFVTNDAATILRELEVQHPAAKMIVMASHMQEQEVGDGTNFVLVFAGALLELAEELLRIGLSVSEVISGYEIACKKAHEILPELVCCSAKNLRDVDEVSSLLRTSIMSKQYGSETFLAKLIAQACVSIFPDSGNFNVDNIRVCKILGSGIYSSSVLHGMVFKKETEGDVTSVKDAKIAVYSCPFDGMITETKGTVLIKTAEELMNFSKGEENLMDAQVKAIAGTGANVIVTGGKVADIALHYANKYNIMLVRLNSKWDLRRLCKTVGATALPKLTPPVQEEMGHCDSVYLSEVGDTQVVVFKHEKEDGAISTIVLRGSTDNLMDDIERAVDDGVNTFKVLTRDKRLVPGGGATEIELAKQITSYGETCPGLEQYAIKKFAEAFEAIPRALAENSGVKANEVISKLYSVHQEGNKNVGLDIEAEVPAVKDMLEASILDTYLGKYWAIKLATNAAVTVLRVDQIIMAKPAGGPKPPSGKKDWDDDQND
UniProt P32020: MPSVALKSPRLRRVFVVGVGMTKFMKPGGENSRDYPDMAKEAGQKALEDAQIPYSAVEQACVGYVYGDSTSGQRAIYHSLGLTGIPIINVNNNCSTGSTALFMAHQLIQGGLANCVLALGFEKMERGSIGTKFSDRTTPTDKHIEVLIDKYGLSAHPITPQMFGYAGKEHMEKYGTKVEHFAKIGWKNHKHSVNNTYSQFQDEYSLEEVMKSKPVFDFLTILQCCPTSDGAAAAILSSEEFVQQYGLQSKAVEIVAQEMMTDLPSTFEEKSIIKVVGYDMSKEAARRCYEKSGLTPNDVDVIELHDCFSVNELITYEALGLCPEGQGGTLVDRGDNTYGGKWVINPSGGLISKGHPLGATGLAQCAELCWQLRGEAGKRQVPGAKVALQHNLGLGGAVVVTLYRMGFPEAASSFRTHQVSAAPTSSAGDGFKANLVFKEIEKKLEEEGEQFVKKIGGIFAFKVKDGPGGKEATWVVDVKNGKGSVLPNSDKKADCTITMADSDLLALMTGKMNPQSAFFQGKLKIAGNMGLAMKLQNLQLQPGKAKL
UniProt P56654, whole entry: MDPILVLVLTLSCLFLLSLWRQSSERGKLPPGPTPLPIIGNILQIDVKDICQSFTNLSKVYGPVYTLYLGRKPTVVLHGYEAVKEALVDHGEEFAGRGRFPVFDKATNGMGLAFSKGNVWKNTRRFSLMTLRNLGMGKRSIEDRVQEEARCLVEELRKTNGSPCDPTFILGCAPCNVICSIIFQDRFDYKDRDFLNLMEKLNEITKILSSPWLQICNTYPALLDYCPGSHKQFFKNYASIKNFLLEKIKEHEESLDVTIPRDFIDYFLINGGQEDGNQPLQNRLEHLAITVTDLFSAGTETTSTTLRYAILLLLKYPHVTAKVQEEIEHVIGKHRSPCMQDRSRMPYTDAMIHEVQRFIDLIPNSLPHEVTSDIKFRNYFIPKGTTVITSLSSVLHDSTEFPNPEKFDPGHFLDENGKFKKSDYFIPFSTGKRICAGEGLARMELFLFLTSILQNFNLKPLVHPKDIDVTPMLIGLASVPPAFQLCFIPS
UniProt P50516, whole entry: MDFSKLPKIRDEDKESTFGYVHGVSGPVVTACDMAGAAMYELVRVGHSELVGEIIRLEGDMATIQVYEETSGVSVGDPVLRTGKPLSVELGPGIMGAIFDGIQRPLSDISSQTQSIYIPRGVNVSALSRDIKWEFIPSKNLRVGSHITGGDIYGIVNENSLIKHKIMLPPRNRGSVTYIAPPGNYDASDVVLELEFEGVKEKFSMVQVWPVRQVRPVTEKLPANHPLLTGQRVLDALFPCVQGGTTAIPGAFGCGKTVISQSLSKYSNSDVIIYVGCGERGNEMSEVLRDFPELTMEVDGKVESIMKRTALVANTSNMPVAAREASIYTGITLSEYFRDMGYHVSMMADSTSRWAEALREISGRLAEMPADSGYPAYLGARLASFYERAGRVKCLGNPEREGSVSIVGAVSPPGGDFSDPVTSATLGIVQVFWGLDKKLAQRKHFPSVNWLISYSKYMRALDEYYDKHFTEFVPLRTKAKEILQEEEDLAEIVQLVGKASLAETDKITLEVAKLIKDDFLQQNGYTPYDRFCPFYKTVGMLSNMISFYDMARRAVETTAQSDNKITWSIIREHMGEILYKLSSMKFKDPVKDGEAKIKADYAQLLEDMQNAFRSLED
UniProt P32261, whole entry: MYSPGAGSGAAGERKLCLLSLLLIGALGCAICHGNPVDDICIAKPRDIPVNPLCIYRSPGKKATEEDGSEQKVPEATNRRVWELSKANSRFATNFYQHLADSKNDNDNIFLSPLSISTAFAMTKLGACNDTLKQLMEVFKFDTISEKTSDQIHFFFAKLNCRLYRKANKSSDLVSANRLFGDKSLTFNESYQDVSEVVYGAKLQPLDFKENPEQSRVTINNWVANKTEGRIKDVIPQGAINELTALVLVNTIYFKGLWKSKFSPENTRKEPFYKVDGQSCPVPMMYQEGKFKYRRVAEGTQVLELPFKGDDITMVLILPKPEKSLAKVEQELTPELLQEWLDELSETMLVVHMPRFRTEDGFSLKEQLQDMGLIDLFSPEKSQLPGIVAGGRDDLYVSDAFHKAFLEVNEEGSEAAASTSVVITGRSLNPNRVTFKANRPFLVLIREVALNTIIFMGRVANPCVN
UniProt P54869: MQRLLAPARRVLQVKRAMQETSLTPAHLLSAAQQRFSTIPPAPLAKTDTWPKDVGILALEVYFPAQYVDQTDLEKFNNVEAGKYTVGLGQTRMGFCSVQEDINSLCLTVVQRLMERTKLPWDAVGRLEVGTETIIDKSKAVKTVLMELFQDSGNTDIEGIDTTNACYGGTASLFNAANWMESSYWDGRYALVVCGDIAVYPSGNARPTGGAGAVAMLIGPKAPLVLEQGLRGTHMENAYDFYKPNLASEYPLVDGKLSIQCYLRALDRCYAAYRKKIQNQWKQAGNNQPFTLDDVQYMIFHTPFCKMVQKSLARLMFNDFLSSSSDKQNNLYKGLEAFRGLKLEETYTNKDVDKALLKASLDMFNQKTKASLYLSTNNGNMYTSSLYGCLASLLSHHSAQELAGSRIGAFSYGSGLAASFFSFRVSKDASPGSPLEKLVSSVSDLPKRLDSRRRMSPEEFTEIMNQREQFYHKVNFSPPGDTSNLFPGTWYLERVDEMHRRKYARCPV
UniProt P46467: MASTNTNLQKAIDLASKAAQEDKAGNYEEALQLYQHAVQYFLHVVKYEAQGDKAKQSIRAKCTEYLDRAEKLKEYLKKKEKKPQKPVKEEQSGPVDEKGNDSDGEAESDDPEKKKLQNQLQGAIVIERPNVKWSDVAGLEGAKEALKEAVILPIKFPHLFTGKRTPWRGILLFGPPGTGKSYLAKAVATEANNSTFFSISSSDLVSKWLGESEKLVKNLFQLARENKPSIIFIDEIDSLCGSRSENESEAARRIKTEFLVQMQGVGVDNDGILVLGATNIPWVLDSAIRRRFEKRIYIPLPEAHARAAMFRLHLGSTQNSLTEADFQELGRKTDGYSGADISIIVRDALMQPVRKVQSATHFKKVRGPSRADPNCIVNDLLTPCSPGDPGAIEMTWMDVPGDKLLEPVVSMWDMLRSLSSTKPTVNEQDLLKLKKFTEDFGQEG

Compound in the assay: CN[C@@H]1C[C@H]2O[C@@](C)([C@@H]1OC)n1c3ccccc3c3c4c(c5c6ccccc6n2c5c31)C(=O)NC4 [staurosporine]
Put plainly: log2 fold change of pooled soluble protein (PISA), ligand vs vehicle (log2 ratio); higher = more thermally stabilized. The conditions noted are these: ligand concentration: 20 uM; assay format: PISA pool 52.9/55.5/58.6 C.

This is one part of the list. Small differences around the control level are noise.

Consider UniProt P49429, for which the “log2 fold change of pooled soluble protein” value (“log2 fold change” below) came to 0.0717. To UniProt P35917 belongs -0.223; to UniProt P54761, 0.163.

Consider UniProt P31001, for which the “log2 fold change” value was -0.0218. As to UniProt P47753, the “log2 fold change” value was -0.0811. UniProt P47758: the “log2 fold change” value is -0.000928. Regarding UniProt P42208, the “log2 fold change” value is -0.143. Take UniProt P35235: the “log2 fold change” value came to 0.0926. For UniProt P39447, the “log2 fold change” value came out at 0.0203. As to UniProt P35486, the “log2 fold change” value is -0.0863.

As to UniProt P48428, the “log2 fold change” value is -0.146. In the case of UniProt P51855, the “log2 fold change” value stood at 0.0621. Turning to UniProt P47199, the “log2 fold change” value was -0.0667.

UniProt P47915: the “log2 fold change” value was -0.242. For the target UniProt P53026, the “log2 fold change” value is 0.144. Take UniProt P45952: the “log2 fold change” value is -0.0814. In the case of UniProt P28661, the “log2 fold change” value was -0.00656.

Turning to UniProt P56379, the “log2 fold change” value worked out at 0.056. Regarding UniProt P56212, the “log2 fold change” value is 0.0902. To UniProt P51859 belongs 0.127.

In the case of UniProt P45591, the “log2 fold change” value is -0.00555. For the target UniProt P53996, the “log2 fold change” value is -0.0289. With UniProt P56380, the “log2 fold change” value is -0.0466. Regarding UniProt P50446, the “log2 fold change” value was -0.617. To UniProt P42932 belongs -0.0631; to UniProt P32020, -0.0115; to UniProt P56528, -0.0752. To UniProt P56654 belongs 0.183; to UniProt P42227, 0.0486; to UniProt P31786, -0.052.

For UniProt P56375, the “log2 fold change” value amounted to 0.16. With UniProt P52843, the “log2 fold change” value was -0.338.

On to UniProt P50543, for which the “log2 fold change” value came to 0.121. Take UniProt P50516: the “log2 fold change” value was found to be 0.0873.

Consider UniProt P32261, for which the “log2 fold change” value turned out to be 0.101. Regarding UniProt P54869, the “log2 fold change” value is -0.0324. For UniProt P46467, the “log2 fold change” value amounted to 0.0243.
